Reference: PMC5960086
These are yes or no findings as the source states them, for the method shown. In cells and extracts the contact can be indirect. Some entries that bind do so weakly or less than the wild type.

Protein sequences, listed by entry. Tags and fused reporters are not part of them.
UniProt Q7TQN4: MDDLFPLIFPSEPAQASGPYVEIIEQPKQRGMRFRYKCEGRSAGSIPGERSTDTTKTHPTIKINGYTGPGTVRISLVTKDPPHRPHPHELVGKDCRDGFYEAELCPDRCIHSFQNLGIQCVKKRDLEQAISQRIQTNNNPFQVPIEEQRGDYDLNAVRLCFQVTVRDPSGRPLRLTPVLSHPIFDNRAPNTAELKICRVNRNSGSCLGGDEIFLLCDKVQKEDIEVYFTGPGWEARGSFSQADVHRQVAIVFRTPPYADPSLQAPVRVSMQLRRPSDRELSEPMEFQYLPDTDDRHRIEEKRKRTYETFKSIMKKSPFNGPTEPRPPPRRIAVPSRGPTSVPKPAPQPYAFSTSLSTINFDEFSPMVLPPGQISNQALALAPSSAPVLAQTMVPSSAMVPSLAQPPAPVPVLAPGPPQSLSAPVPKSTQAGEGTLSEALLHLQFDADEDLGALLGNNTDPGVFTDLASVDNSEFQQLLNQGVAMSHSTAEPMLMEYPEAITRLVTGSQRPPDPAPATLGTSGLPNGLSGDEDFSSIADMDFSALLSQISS

Target: T1, STAT1 (signal transducer and activator of transcription 1), acetylated (rat (endogenous in spinal cord tissue)) (UniProt Q9QXK0)
T1 sequence (chain, acetylated on lysine (positions not determined in this paper's experiment)): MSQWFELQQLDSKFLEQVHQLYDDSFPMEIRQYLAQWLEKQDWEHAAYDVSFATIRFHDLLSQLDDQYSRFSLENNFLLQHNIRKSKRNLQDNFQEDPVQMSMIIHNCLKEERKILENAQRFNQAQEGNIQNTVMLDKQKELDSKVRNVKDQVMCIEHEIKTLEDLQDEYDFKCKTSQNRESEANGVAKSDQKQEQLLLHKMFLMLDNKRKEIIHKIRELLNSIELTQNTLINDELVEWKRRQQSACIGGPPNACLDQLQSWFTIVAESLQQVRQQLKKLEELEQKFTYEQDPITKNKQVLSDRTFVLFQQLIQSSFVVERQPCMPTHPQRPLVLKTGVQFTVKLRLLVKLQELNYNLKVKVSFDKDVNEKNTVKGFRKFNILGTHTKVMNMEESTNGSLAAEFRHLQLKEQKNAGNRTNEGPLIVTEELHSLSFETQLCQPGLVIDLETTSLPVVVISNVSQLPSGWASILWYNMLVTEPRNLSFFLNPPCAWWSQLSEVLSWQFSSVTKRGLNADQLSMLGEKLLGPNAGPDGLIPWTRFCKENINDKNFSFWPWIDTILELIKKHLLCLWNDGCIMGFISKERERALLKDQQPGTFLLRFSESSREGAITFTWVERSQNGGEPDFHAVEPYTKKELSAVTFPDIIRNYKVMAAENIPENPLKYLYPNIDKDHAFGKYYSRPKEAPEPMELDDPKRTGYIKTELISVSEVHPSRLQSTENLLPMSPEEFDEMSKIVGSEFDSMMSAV
Assay: co-IP; rat spinal cord specimens near the lesion epicenter, 7 days after SCI, with or without VPA treatment; 2 h at 4 °C with 1 μg antibody (STAT1 or NF-κB p65), protein A/G agarose beads overnight, washed three times with lysis buffer, Western blot

binding: binds
Substance: NF-κB p65 (from UniProt Q7TQN4 1-550)
